Laboratory results as given in paper PMC4549324.
No constants are given. Whether binding was seen depends on the method and setting. Binding seen in cells or lysates may run through a third protein. Some binding calls cover weakened binding; strength is not graded here. For some assays here: Tags and fused reporters may be left off the sequences shown.

Sequences of proteins named here, by UniProt entry; tags and fusion partners are left off.
UniProt Q9UQL6: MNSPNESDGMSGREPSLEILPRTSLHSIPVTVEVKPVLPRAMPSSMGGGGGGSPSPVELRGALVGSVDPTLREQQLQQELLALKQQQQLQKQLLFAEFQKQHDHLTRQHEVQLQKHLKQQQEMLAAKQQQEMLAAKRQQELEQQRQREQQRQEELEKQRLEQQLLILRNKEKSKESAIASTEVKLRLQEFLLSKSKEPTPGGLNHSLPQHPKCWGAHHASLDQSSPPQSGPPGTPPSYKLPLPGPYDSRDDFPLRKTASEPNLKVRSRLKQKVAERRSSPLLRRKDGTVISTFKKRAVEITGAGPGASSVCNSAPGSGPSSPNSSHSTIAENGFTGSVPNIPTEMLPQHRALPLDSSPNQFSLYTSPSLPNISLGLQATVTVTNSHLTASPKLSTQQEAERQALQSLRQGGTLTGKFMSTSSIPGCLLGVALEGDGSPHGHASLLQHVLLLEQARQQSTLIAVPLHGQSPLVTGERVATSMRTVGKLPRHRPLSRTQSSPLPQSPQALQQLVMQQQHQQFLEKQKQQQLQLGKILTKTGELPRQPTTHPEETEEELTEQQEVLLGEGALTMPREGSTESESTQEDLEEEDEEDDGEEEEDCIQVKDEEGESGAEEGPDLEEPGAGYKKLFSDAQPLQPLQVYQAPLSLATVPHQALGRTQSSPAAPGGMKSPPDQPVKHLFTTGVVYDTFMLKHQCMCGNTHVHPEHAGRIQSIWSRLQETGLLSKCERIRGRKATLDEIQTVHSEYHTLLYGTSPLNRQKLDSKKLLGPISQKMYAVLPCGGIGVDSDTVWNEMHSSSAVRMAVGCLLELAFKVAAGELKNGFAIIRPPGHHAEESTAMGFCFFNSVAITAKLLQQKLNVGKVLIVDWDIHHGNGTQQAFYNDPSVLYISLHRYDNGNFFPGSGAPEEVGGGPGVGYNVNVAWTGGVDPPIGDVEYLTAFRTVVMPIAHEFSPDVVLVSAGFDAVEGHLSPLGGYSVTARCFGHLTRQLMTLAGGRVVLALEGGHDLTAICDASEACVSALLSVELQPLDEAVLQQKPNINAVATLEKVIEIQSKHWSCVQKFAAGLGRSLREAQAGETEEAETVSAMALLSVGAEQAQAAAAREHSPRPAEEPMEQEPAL

T1: HDAC3-Flag, O15379
T1 chain: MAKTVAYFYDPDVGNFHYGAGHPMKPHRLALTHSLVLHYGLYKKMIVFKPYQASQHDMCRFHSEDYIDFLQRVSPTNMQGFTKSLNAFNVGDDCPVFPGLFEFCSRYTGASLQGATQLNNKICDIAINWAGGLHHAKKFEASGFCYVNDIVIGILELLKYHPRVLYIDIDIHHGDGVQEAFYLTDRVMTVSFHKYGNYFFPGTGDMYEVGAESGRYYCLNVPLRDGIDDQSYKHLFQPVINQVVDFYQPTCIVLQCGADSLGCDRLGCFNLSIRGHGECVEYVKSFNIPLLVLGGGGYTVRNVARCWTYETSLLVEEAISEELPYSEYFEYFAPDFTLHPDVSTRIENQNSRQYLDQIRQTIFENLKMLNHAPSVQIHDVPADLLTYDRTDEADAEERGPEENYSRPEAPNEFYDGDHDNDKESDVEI

B1: HDAC7-Flag (Addgene plasmid 13824), Q8WUI4 1-952 (enzyme)
chain: MDLRVGQRPPVEPPPEPTLLALQRPQRLHHHLFLAGLQQQRSVEPMRLSMDTPMPELQVGPQEQELRQLLHKDKSKRSAVASSVVKQKLAEVILKKQQAALERTVHPNSPGIPYRTLEPLETEGATRSMLSSFLPPVPSLPSDPPEHFPLRKTVSEPNLKLRYKPKKSLERRKNPLLRKESAPPSLRRRPAETLGDSSPSSSSTPASGCSSPNDSEHGPNPILGSEALLGQRLRLQETSVAPFALPTVSLLPAITLGLPAPARADSDRRTHPTLGPRGPILGSPHTPLFLPHGLEPEAGGTLPSRLQPILLLDPSGSHAPLLTVPGLGPLPFHFAQSLMTTERLSGSGLHWPLSRTRSEPLPPSATAPPPPGPMQPRLEQLKTHVQVIKRSAKPSEKPRLRQIPSAEDLETDGGGPGQVVDDGLEHRELGHGQPEARGPAPLQQHPQVLLWEQQRLAGRLPRGSTGDTVLLPLAQGGHRPLSRAQSSPAAPASLSAPEPASQARVLSSSETPARTLPFTTGLIYDSVMLKHQCSCGDNSRHPEHAGRIQSIWSRLQERGLRSQCECLRGRKASLEELQSVHSERHVLLYGTNPLSRLKLDNGKLAGLLAQRMFVMLPCGGVGVDTDTIWNELHSSNAARWAAGSVTDLAFKVASRELKNGFAVVRPPGHHADHSTAMGFCFFNSVAIACRQLQQQSKASKILIVDWDVHHGNGTQQTFYQDPSVLYISLHRHDDGNFFPGSGAVDEVGAGSGEGFNVNVAWAGGLDPPMGDPEYLAAFRIVVMPIAREFSPDLVLVSAGFDAAEGHPAPLGGYHVSAKCFGYMTQQLMNLAGGAVVLALEGGHDLTAICDASEACVAALLGNRVDPLSEEGWKQKPNLNAIRSLEAVIRVHSKYWGCMQRLASCPDSWVPRVPGADKEEVEAVTALASLSVGILAEDRPSEQLVEEEEPMNL

Assays:
[1] = target: HA-tagged mineralocorticoid receptor (pCMV-HA-MR) (UniProt P08235); experiment: co-IP; HEK293 co-transfected with MR-HA and HDAC4-, HDAC5- or HDAC7-Flag; Aldo 10 nM for 30 min; whole-cell lysates; MR precipitated with anti-HA antibody, HDACs detected with anti-Flag antibody
HDAC3-Flag, O15379 = target: T1, HDAC3-Flag, O15379; experiment: co-IP; HEK293 co-transfected with HDAC3-Flag and HDAC4-, HDAC5- or HDAC7-Flag; Aldo treatment; HDAC3 immunoprecipitated with an antibody, class II HDACs detected by western blotting; details: remark: other sources report otherwise

Row | Molecule | binding [1] | binding (HDAC3-Flag, O15379)
1 | HDAC5-Flag (Addgene plasmid 13822) (from UniProt Q9UQL6 1-1122) (enzyme) | binds | –
2 | B1 | – | no binding
